Screening data

By UniProt entry, the sequences of proteins in these tests, tags left out.
UniProt P04637, whole entry, target on record: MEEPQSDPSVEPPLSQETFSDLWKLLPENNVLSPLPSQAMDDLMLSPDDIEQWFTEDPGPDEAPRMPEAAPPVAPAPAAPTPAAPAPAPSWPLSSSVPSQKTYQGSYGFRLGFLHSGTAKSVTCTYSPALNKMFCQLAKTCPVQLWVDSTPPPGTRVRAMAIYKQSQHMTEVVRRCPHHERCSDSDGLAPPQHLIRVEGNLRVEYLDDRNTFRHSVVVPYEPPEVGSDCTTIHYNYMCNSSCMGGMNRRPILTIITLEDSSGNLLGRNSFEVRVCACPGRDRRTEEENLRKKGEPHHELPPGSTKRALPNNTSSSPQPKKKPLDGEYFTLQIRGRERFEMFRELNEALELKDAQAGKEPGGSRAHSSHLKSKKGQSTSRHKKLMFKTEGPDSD

Data taken from PubChem BioAssay AID2060322, deposited by NCATS (2025).

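NCI-H358 cells carrying N-terminally eGFP-tagged delta133p53alpha, with eGFP fluorescence read at 24 hours and fitted across a concentration series.
The dilution series runs from about 7.7e-06 to 290 µM in 23 concentration columns.
Potency, read at half-maximal effect from the fitted activation curve; lower values mean a more potent compound.
Calls follow the dose-curve shape: a well-fitted activation curve with a large enough effect is active, and small, poorly fitted or top-dose-only effects are inconclusive.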

Values are in µM.
All entries here are filed as inconclusive.
These entries are mostly ones the record files as inconclusive; other results of the assay are not listed here.
A potency from a partial, single-point or poor curve is only a rough figure.
Some entries filed as inconclusive have a full curve.

- CN(C)c1cc2c(Nc3ccc4c(cnn4Cc4ccccc4)c3)ncnc2cn1 : Potency 33.81 µM (activator, single point)
- CCN(Cc1ccccc1)C(=O)Cn1c(=O)n(C)c2cnc(-c3ccccc3)nc21 : Potency 23.93 µM (activator, single point)
- NC(=O)[C@H]1CCS[C@@H]2C[C@]3(CCCN3C(=O)Cc3ccc(NC(=O)COc4ccc(Cl)cc4Cl)cc3)C(=O)N12 : Potency 9.528 µM (activator, partial curve)
- Nc1ncnc2nc(-c3ccc(N4CCOCC4)nc3)cc(-c3cccc(Br)c3)c12 : Potency 27.28 µM (activator, single point)
- COc1ncc(Nc2ncc([C@H](C)N3CCN(S(C)(=O)=O)CC3)cc2-c2nc(C)nc(N)n2)cc1F : Potency 30.13 µM (activator, single point)
- COc1ccc2c(c1)CC[C@@H](CN(C)CC(=O)O)[C@H]2c1ccccc1 : Potency 2.728 µM (activator, full curve)
- C=CCc1cccc(C=NNC(=O)CN2CCN(Cc3ccccc3)CC2)c1O : Potency 37.93 µM (activator, single point)
- COc1ccc(Oc2c(Cl)cnn(-c3cc(C)cc(C)c3)c2=O)cc1 : Potency 10.69 µM (activator, partial curve)
- O=C(NOC[C@H](O)CO)c1ccc(F)c(F)c1Nc1ccc(I)cc1F : Potency 5.444 µM (activator, partial curve, poor fit)
- CN(C)Cc1ccc(-c2nc3cccc4c3n2CCNC4=O)cc1 : Potency 21.67 µM (activator, partial curve, poor fit)
- CC[C@H](C)[C@H]1O[C@]2(CC[C@@H]1C)C[C@@H]1C[C@@H](C/C=C(\C)[C@@H](O[C@H]3C[C@H](OC)[C@@H](O[C@H]4C[C@H](OC)[C@@H](O)[C@H](C)O4)[C@H](C)O3)[C@@H](C)/C=C/C=C3\CO[C@@H]4[C@H](O)C(C)=C[C@@H](C(=O)O1)[C@]34O)O2 : Potency 37.93 µM (activator, single point)
- COc1cc2c(NC3CCN(CC4CCCCC4)CC3)nc(N3CCCN(C(C)C)CC3)nc2cc1OCCCN1CCCCC1 : Potency 26.85 µM (activator, single point)
- C[C@@H](NC(=O)c1ncnc(N)c1Cl)c1ncc(C(=O)Nc2cc(C(F)(F)F)c(Cl)cn2)s1 : Potency 2.432 µM (activator, partial curve, poor fit)
- CC[C@H](CO)Nc1nc(Nc2cccc(-c3ccccn3)c2)c2ncn(C(C)C)c2n1 : Potency 16.94 µM (activator, partial curve, poor fit)
- CC(C)(O)CC(=O)NCCn1ccc2ncnc(Nc3ccc(Oc4cccc(C(F)(F)F)c4)c(Cl)c3)c21 : Potency 30.13 µM (activator, single point)
- COc1cc(Nc2ncc(F)c(Nc3ccc4c(n3)NC(=O)C(C)(C)O4)n2)cc(OC)c1OC : Potency 5.358 µM (activator, partial curve, poor fit)
- c1nc2nc(Nc3ccc(N4CCOCC4)cc3)nc(NC3CCCCC3)c2[nH]1 : Potency 18.53 µM (activator, single point)
- Cc1cccc(NC(=O)CN2CCC(c3ccccn3)CC2)c1 : Potency 13.46 µM (activator, partial curve, poor fit)
- O=C(O)c1ccc(CN2CCC(CN[C@@H]3C[C@H]3c3ccccc3)CC2)cc1 : Potency 2.686 µM (activator, partial curve, poor fit)
- COc1cc2ncnc(Nc3cccc(Cl)c3F)c2cc1OC(=O)N1CCN(C)C[C@H]1C : Potency 1.346 µM (activator, partial curve, poor fit)
- CCCCc1oc2ccccc2c1C(=O)c1cc(I)c(OCCN(CC)CC)c(I)c1 : Potency 4.901 µM (activator, full curve, poor fit)
- CC(=O)O[C@H]1C(=O)[C@@]2(C)[C@H]([C@H](OC(=O)c3ccccc3)[C@]3(O)C[C@H](OC(=O)[C@H](O)[C@@H](NC(=O)c4ccccc4)c4ccccc4)C(C)=C1C3(C)C)[C@]1(OC(C)=O)CO[C@@H]1C[C@@H]2O : Potency 0.036 µM (activator, partial curve, poor fit)

Once more, the final 2:

| SMILES | Potency (µM) | curve |
|---|---|---|
| `CCCCc1oc2ccccc2c1C(=O)c1cc(I)c(OCCN(CC)CC)c(I)c1` | 4.901 | activator, full curve, poor fit |
| `CC(=O)O[C@H]1C(=O)[C@@]2(C)[C@H]([C@H](OC(=O)c3ccccc3)[C@]3(O)C[C@H](OC(=O)[C@H](O)[C@@H](NC(=O)c4ccccc4)c4ccccc4)C(C)=C1C3(C)C)[C@]1(OC(C)=O)CO[C@@H]1C[C@@H]2O` | 0.036 | activator, partial curve, poor fit |